Results reported in paper doi:10.1101/2022.09.09.507380.
These are yes or no findings as the source states them, for the method shown. Binding seen in cells or lysates may run through a third protein. These calls come from enrichment with a bait or labelling near it, and not all partners need be listed.

Amino acid sequences for entries named in this document (tags omitted).
UniProt P62140: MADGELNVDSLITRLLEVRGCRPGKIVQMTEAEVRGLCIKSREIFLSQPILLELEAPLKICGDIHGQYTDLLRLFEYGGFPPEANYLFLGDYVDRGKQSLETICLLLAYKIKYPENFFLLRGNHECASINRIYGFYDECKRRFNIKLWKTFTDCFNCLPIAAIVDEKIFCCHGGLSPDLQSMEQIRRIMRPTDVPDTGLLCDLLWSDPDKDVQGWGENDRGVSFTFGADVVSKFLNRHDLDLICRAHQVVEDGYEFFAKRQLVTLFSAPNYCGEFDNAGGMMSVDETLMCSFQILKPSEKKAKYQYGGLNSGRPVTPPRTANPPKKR
UniProt P36873: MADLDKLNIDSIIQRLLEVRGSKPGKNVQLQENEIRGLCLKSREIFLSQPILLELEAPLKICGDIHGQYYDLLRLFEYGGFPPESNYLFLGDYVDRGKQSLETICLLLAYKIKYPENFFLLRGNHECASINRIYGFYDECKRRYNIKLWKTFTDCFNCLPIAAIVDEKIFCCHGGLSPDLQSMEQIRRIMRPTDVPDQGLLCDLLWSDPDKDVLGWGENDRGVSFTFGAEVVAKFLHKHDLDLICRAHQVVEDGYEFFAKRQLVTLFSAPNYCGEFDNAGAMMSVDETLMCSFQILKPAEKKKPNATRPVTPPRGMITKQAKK

B1: ASPP2 (protein, UniProt Q13625 1-1128)
chain: MMPMFLTVYLSNNEQHFTEVPVTPETICRDVVDLCKEPGESDCHLAEVWCGSERPVADNERMFDVLQRFGSQRNEVRFFLRHERPPGRDIVSGPRSQDPSLKRNGVKVPGEYRRKENGVNSPRMDLTLAELQEMASRQQQQIEAQQQLLATKEQRLKFLKQQDQRQQQQVAEQEKLKRLKEIAENQEAKLKKVRALKGHVEQKRLSNGKLVEEIEQMNNLFQQKQRELVLAVSKVEELTRQLEMLKNGRIDSHHDNQSAVAELDRLYKELQLRNKLNQEQNAKLQQQRECLNKRNSEVAVMDKRVNELRDRLWKKKAALQQKENLPVSSDGNLPQQAASAPSRVAAVGPYIQSSTMPRMPSRPELLVKPALPDGSLVIQASEGPMKIQTLPNMRSGAASQTKGSKIHPVGPDWSPSNADLFPSQGSASVPQSTGNALDQVDDGEVPLREKEKKVRPFSMFDAVDQSNAPPSFGTLRKNQSSEDILRDAQVANKNVAKVPPPVPTKPKQINLPYFGQTNQPPSDIKPDGSSQQLSTVVPSMGTKPKPAGQQPRVLLSPSIPSVGQDQTLSPGSKQESPPAAAVRPFTPQPSKDTLLPPFRKPQTVAASSIYSMYTQQQAPGKNFQQAVQSALTKTHTRGPHFSSVYGKPVIAAAQNQQQHPENIYSNSQGKPGSPEPETEPVSSVQENHENERIPRPLSPTKLLPFLSNPYRNQSDADLEALRKKLSNAPRPLKKRSSITEPEGPNGPNIQKLLYQRTTIAAMETISVPSYPSKSASVTASSESPVEIQNPYLHVEPEKEVVSLVPESLSPEDVGNASTENSDMPAPSPGLDYEPEGVPDNSPNLQNNPEEPNPEAPHVLDVYLEEYPPYPPPPYPSGEPEGPGEDSVSMRPPEITGQVSLPPGKRTNLRKTGSERIAHGMRVKFNPLALLLDSSLEGEFDLVQRIIYEVDDPSLPNDEGITALHNAVCAGHTEIVKFLVQFGVNVNAADSDGWTPLHCAASCNNVQVCKFLVESGAAVFAMTYSDMQTAADKCEEMEEGYTQCSQFLYGVQEKMGIMNKGVIYALWDYEPQNDDELPMKEGDCMTIIHREDEDEIEWWWARLNDKEGYVPRNLLGLYPRIKPRQRSLA
B2: Inhibitor-2 (protein, UniProt P41236 1-205)
chain: MAASTASHRPIKGILKNKTSTTSSMVASAEQPRGNVDEELSKKSQKWDEMNILATYHPADKDYGLMKIDEPSTPYHSMMGDDEDACSDTEATEAMAPDILARKLAAAEGLEPKYRIQEQESSGEEDSDLSPEEREKKRQFEMKRKLHYNEGLNIKLARQLISKDLHDDDEDEEMLETADGESMNTEESNQGSTPSDQQQNKLRSS
B3: CDCA2/RepoMan (protein, UniProt Q69YH5 1-1023)
chain: MDANSKDKPPETKESAMNNAGNASFILGTGKIVTPQKHAELPPNPCTPDTFKSPLNFSTVTVEQLGITPESFVRNSAGKSSSYLKKCRRRSAVGARGSPETNHLIRFIARQQNIKNARKSPLAQDSPSQGSPALYRNVNTLRERISAFQSAFHSIKENEKMTGCLEFSEAGKESEMTDLTRKEGLSACQQSGFPAVLSSKRRRISYQRDSDENLTDAEGKVIGLQIFNIDTDRACAVETSVDLSEISSKLGSTQSGFLVEESLPLSELTETSNALKVADCVVGKGSSDAVSPDTFTAEVSSDAVPDVRSPATPACRRDLPTPKTFVLRSVLKKPSVKMCLESLQEHCNNLYDDDGTHPSLISNLPNCCKEKEAEDEENFEAPAFLNMRKRKRVTFGEDLSPEVFDESLPANTPLRKGGTPVCKKDFSGLSSLLLEQSPVPEPLPQPDFDDKGENLENIEPLQVSFAVLSSPNKSSISETLSGTDTFSSSNNHEKISSPKVGRITRTSNRRNQLVSVVEESVCNLLNTEVQPCKEKKINRRKSQETKCTKRALPKKSQVLKSCRKKKGKGKKSVQKSLYGERDIASKKPLLSPIPELPEVPEMTPSIPSIRRLGSGYFSSNGKLEEVKTPKNPVKRKDLLRHDPDLHMHQGYDKYDVSEFCSYIKSSSSLGNATSDEDPNTNIMNINENKNIPKAKNKSESENEPKAGTDSPVSCASVTEERVASDSPKPALTLQQGQEFSAGGQNAENLCQFFKISPDLNIKCERKDDFLGAAEGKLQCNRLMPNSQKDCHCLGDVLIENTKESKSQSEDLGRKPMESSSVVSCRDRKDRRRSMCYSDGRSLHLEKNGNHTPSSSVGSSVEISLENSELFKDLSDAIEQTFQRRNSETKVRRSTRLQKDLENEGLVWISLPLPSTSQKAKRRTICTFDSSGFESMSPIKETVSSRQKPQMAPPVSDPENSQGPAAGSSDEPGKRRKSFCISTLANTKATSQFKGYRRRSSLNGKGESSLTALERIEHNGERKQ
B4: Inhibitor-3 (protein, UniProt O60927 1-126)
chain: MAEAGAGLSETVTETTVTVTTEPENRSLTIKLRKRKPEKKVEWTSDTVDNEHMGRRSSKCCCIYEKPRAFGESSTESDEEEEEGCGHTHCVRGHRKGRRRATLGPTPTTPPQPPDPSQPPPGPMQH
B5: SDS22 (protein, UniProt Q15435 1-360)
chain: MAAERGAGQQQSQEMMEVDRRVESEESGDEEGKKHSSGIVADLSEQSLKDGEERGEEDPEEEHELPVDMETINLDRDAEDVDLNHYRIGKIEGFEVLKKVKTLCLRQNLIKCIENLEELQSLRELDLYDNQIKKIENLEALTELEILDISFNLLRNIEGVDKLTRLKKLFLVNNKISKIENLSNLHQLQMLELGSNRIRAIENIDTLTNLESLFLGKNKITKLQNLDALTNLTVLSMQSNRLTKIEGLQNLVNLRELYLSHNGIEVIEGLENNNKLTMLDIASNRIKKIENISHLTELQEFWMNDNLLESWSDLDELKGARSLETVYLERNPLQKDPQYRRKVMLALPSVRQIDATFVRF
B6: ASPP1 (protein, UniProt Q96KQ4 1-1090)
chain: MMPMILTVFLSNNEQILTEVPITPETTCRDVVEFCKEPGEGSCHLAEVWRGNERPIPFDHMMYEHLQKWGPRREEVKFFLRHEDSPTENSEQGGRQTQEQRTQRNVINVPGEKRTENGVGNPRVELTLSELQDMAARQQQQIENQQQMLVAKEQRLHFLKQQERRQQQSISENEKLQKLKERVEAQENKLKKIRAMRGQVDYSKIMNGNLSAEIERFSAMFQEKKQEVQTAILRVDQLSQQLEDLKKGKLNGFQSYNGKLTGPAAVELKRLYQELQIRNQLNQEQNSKLQQQKELLNKRNMEVAMMDKRISELRERLYGKKIQLNRVNGTSSPQSPLSTSGRVAAVGPYIQVPSAGSFPVLGDPIKPQSLSIASNAAHGRSKSANDGNWPTLKQNSSSSVKPVQVAGADWKDPSVEGSVKQGTVSSQPVPFSALGPTEKPGIEIGKVPPPIPGVGKQLPPSYGTYPSPTPLGPGSTSSLERRKEGSLPRPSAGLPSRQRPTLLPATGSTPQPGSSQQIQQRISVPPSPTYPPAGPPAFPAGDSKPELPLTVAIRPFLADKGSRPQSPRKGPQTVNSSSIYSMYLQQATPPKNYQPAAHSALNKSVKAVYGKPVLPSGSTSPSPLPFLHGSLSTGTPQPQPPSESTEKEPEQDGPAAPADGSTVESLPRPLSPTKLTPIVHSPLRYQSDADLEALRRKLANAPRPLKKRSSITEPEGPGGPNIQKLLYQRFNTLAGGMEGTPFYQPSPSQDFMGTLADVDNGNTNANGNLEELPPAQPTAPLPAEPAPSSDANDNELPSPEPEELICPQTTHQTAEPAEDNNNNVATVPTTEQIPSPVAEAPSPGEEQVPPAPLPPASHPPATSTNKRTNLKKPNSERTGHGLRVRFNPLALLLDASLEGEFDLVQRIIYEVEDPSKPNDEGITPLHNAVCAGHHHIVKFLLDFGVNVNAADSDGWTPLHCAASCNSVHLCKQLVESGAAIFASTISDIETAADKCEEMEEGYIQCSQFLYGVQEKLGVMNKGVAYALWDYEAQNSDELSFHEGDALTILRRKDESETEWWWARLGDREGYVPKNLLGLYPRIKPRQRTLA

biological target: hPP1β-GFP (pEGFP expression plasmid, stable cell lines) (human) (UniProt P62140); test: affinity purification with mass spectrometry

| binding | Binder |
| --- | --- |
| binds | B1 |
| binds | B2 |
| binds | B3 |
| binds | B4 |
| binds | B5 |
| binds | B6 |

biological target: GFP-hPP1γ (pEGFP expression plasmid, stable cell lines) (human) (UniProt P36873); test: affinity purification with mass spectrometry

| binding | Binder |
| --- | --- |
| binds | B1 |
| binds | B2 |
| binds | B4 |
| binds | B6 |
